# These are yes or no findings as the source states them, for the method shown. Some binding calls cover weakened binding; strength is not graded here.
# Sequences of proteins named here, by UniProt entry; tags and fusion partners are left off. Residues count along the entry.
# UniProt P12319, residues 26-201: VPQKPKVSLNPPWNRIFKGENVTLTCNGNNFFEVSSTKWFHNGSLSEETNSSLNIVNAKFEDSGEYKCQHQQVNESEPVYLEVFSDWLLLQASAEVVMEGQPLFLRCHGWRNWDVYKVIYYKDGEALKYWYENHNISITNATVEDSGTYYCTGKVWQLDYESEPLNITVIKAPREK
# Target: extracellular domain of the alpha subunit of the human FcεRI (aa 1-176) (human) (UniProt P12319)
# Assay: competitive phage ELISA on FcεRI (FIG. 3)
substance,measurement,value
IGE134-phage … (from UniProt P01241 27-217) (peptide),binding,binds

# From patent US7101851 (dated 2006)
